This is an account of results in article PMC5712633.

Chains of the proteins cited; added tags and fusions are not shown. Lines headed by an entry give the natural chain unless they say otherwise; changes in a name come on top. Residues count along the entry.
UniProt Q3KR86: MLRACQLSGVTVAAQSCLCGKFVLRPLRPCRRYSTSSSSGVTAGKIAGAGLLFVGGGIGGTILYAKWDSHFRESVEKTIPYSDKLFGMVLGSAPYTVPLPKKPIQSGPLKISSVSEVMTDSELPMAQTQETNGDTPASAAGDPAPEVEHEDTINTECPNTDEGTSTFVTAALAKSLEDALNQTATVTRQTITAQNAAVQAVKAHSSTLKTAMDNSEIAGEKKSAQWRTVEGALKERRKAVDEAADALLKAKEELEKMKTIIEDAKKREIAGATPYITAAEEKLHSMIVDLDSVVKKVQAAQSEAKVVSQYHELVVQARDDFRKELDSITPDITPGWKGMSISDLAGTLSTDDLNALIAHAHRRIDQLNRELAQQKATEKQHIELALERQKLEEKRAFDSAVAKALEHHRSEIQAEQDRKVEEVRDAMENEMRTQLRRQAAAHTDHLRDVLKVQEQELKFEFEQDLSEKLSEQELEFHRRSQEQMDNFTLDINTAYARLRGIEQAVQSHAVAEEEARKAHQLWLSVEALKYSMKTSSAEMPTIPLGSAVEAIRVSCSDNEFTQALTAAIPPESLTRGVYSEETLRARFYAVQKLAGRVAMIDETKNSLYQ
UniProt Q2TA68, residues 88-960: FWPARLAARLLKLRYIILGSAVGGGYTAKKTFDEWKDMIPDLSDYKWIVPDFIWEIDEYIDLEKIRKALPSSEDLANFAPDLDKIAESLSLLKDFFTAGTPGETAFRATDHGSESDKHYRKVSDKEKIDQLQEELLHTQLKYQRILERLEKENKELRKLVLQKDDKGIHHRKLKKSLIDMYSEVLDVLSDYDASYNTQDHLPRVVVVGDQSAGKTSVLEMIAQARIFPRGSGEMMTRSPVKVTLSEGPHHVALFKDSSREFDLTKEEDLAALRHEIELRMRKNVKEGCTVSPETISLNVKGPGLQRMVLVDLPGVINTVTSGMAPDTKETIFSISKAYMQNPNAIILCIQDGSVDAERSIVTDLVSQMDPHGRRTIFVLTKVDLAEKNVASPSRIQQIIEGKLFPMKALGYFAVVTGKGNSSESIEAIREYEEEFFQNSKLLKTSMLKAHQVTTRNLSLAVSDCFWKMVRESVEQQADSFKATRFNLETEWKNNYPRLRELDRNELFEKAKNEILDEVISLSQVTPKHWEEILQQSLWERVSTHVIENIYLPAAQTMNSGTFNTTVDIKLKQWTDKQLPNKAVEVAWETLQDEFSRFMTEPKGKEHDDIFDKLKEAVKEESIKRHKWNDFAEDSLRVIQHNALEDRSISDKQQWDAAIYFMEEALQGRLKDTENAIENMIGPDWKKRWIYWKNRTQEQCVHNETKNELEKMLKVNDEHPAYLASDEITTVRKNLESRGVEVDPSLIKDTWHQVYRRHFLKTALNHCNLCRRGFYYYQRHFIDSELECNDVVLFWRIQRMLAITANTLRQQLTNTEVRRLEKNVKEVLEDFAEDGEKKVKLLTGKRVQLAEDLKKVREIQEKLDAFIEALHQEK

No constants are given. Whether binding was seen depends on the method and setting. Binding seen in cells or lysates may run through a third protein. Binding can be weak; no strength is given.

The target of this test is MIC60 (UniProt Q3KR86). Briefly: co-IP; cell extracts (1 mg) of RNT cells (control, UnAG 1 uM, I/Reo, UnAG+I/Reo) immunoprecipitated with anti-MIC60 and blotted for Opa1, or immunoprecipitated with anti-Opa1 and blotted for MIC60; protein-A-Sepharose beads; eluted by boiling in 1% SDS.

As to “optic atrophy 1 (Opa1) protein (from UniProt Q2TA68 88-960)”, the binding entry was “binds”.
